In article PMC9984397:
Results are given in words; binding and its absence hold for the method and conditions named. Binding can be weak; no strength is given. Tags and fused reporters may be left off the sequences shown. For some assays here: In cells and extracts the contact can be indirect.

Legend:
[1] = molecular target: T1, AtSCC3 (SISTER CHROMATID COHESION 3), yeast two-hybrid fusion in pGBKT7 (Arabidopsis thaliana) (UniProt O82265); assay: two-hybrid; yeast AH109, pGBKT7 and pGADT7 constructs co-transformed; growth on SD-Leu-Trp-His-Ala, 3-7 days at 30 C
T1 sequence: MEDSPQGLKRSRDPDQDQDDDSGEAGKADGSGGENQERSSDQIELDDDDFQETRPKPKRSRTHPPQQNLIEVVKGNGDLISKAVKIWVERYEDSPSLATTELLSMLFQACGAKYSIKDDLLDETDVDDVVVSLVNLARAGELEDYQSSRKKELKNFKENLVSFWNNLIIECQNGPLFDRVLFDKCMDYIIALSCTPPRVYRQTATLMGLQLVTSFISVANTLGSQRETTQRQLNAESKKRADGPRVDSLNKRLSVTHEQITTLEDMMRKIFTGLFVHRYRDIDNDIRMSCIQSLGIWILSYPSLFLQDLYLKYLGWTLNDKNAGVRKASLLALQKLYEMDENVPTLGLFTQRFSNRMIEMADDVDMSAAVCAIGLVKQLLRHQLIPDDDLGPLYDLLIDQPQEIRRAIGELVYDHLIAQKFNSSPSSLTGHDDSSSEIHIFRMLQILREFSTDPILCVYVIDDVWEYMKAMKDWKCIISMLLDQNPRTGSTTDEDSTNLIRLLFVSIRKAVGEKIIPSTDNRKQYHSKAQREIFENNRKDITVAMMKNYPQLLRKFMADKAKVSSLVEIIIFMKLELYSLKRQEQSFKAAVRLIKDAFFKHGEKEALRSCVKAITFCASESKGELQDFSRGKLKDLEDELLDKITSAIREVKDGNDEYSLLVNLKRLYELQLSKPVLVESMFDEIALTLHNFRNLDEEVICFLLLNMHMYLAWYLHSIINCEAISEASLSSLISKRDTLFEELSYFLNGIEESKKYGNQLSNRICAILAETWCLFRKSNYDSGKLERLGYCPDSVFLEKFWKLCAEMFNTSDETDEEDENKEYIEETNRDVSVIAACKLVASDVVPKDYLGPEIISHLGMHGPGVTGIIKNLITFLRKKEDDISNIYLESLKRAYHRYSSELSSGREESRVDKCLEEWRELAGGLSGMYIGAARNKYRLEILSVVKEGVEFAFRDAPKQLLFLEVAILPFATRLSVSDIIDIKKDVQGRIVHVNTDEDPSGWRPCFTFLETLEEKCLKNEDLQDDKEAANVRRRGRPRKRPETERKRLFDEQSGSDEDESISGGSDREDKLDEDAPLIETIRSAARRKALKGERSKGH

[2] = molecular target: T2, NSCC3: AtSCC3 fused with the N-terminal of LUC (Arabidopsis thaliana) (UniProt O82265); assay: split reporter; firefly luciferase complementation imaging; N- and C-terminal LUC fragment fusions co-infiltrated into N. benthamiana leaves, imaged 48 h later with luciferin
T2 sequence: T1 sequence

[3] = molecular target: T3, CSCC3: AtSCC3 fused with the C-terminal of LUC (Arabidopsis thaliana) (UniProt O82265); assay: as above
T3 sequence: T1 sequence

[4] = molecular target: AtBMI1C-YFP (Arabidopsis thaliana); assay: co-IP; AtBMI1A/B/C-YFP, AtSYN4-FLAG and AtSCC3-FLAG co-expressed in N. benthamiana leaves; nuclear proteins on anti-GFP magnetic beads overnight at 4 C; blots with anti-GFP and anti-FLAG
[5] = molecular target: AtBMI1A-YFP (Arabidopsis thaliana); assay: as above
[6] = molecular target: AtBMI1B-YFP (Arabidopsis thaliana); assay: as above

“AtBMI1A, yeast two-hybrid fusion in pGADT7 (Arabidopsis thaliana)” was tested, and the binding [1] was “binds”.

“AtSYN1, LUC-fragment fusion (Arabidopsis thaliana)” was tested, and the binding [2] was “no binding”.

In the case of “AtSYN2, LUC-fragment fusion (Arabidopsis thaliana)”, the binding [2] is reported as “no binding”.

With “AtSYN3, LUC-fragment fusion (Arabidopsis thaliana)” the binding [2] was “no binding”.

In the case of “CSYN4: AtSYN4 fused with the C-terminal of LUC (Arabidopsis thaliana)”, the binding [2] is reported as “binds”.

With “NBMI1A: AtBMI1A fused with the N-terminal of LUC (Arabidopsis thaliana)” the binding [3] was “binds”.

“NBMI1B: AtBMI1B fused with the N-terminal of LUC (Arabidopsis thaliana)” was tested, and the binding [3] was “binds”.

In the case of “NBMI1C: AtBMI1C fused with the N-terminal of LUC (Arabidopsis thaliana)”, the binding [3] is reported as “binds”.

B1: AtSCC3-FLAG (protein, UniProt O82265 1-1098)
chain: T1 sequence
In the case of B1, the binding [4] is reported as “binds”, the binding [5] is reported as “binds” and the binding [6] is reported as “binds”.
